Measured values taken from PubChem BioAssay AID248 (DTP/NCI, 2004).
The list shows only some results of the screen, not a fair sample: it is rich in T/C values a quarter to a half above the control, in often repeated tests (any T/C) and in doses without a T/C. Other doses and runs of a compound stand elsewhere. T/C: endpoint of the treated group in % of that of the vehicle group. Where survival is the endpoint, the PubChem record calls one and a half times the control and up active, and a quarter to a half above the control has no call in these data; cut-offs in other NCI protocols can differ. Schedules are NCI's codes, taken here to give the interval after Q, in days (D) or hours (H), and the number of doses after X. Some doses were run more than once; their values stand side by side, smallest first. Counts like (3×) count equal records among those shown.

Tested on: L1210 leukemia ip in BDF1 mice, survival T/C
Experiment: NCI In Vivo Anticancer Drug Screen. Data for tumor model L1210 Leukemia (intraperitoneal) in B6D2F1 (BDF1) mice
Conditions: T/C endpoint: median survival time, higher T/C = longer survival

CC(CN1CC(=O)NC(=O)C1)N1CC(=O)NC(=O)C1 (stereo unspecified)
T/C (dose: 128.0 mg/kg/injection, schedule: Q04DX003 (sc), vehicle: saline with Tween-80): 144 % of control | T/C (dose: 164.0 mg/kg/injection, schedule: Q04DX003 (ip), vehicle: Klucel (hydroxypropylcellulose) (HPC), evaluated on day 5): 142 % of control | T/C (dose: 164.0 mg/kg/injection, schedule: Q04DX003 (ip), vehicle: Klucel (hydroxypropylcellulose) (HPC), evaluated on day 7): 133 % of control | T/C (dose: 164.0 mg/kg/injection, schedule: Q04DX003 (ip), vehicle: Klucel (hydroxypropylcellulose) (HPC), evaluated on day 35): 133 % of control | T/C (dose: 164.0 mg/kg/injection, schedule: Q04DX003 (ip), vehicle: Klucel (hydroxypropylcellulose) (HPC), evaluated on day 60): 144 % of control | T/C (dose: 180.0 mg/kg/injection, schedule: Q04DX003 (ip), vehicle: Klucel (hydroxypropylcellulose) (HPC), evaluated on day 5): 124, 148, 159, 162 % of control | T/C (dose: 180.0 mg/kg/injection, schedule: Q04DX003 (ip), vehicle: Klucel (hydroxypropylcellulose) (HPC), evaluated on day 7): 117 % of control | T/C (dose: 180.0 mg/kg/injection, schedule: Q04DX003 (ip), vehicle: Klucel (hydroxypropylcellulose) (HPC), evaluated on day 24): 116 % of control | T/C (dose: 180.0 mg/kg/injection, schedule: Q04DX003 (ip), vehicle: Klucel (hydroxypropylcellulose) (HPC), evaluated on day 27): 155 % of control | T/C (dose: 180.0 mg/kg/injection, schedule: Q04DX003 (ip), vehicle: Klucel (hydroxypropylcellulose) (HPC), evaluated on day 30): 150 % of control | T/C (dose: 180.0 mg/kg/injection, schedule: Q04DX003 (ip), vehicle: Klucel (hydroxypropylcellulose) (HPC), evaluated on day 33): 150 % of control | T/C (dose: 180.0 mg/kg/injection, schedule: Q04DX003 (ip), vehicle: Klucel (hydroxypropylcellulose) (HPC), evaluated on day 34): 162 % of control | T/C (dose: 180.0 mg/kg/injection, schedule: Q04DX003 (ip), vehicle: Klucel (hydroxypropylcellulose) (HPC), evaluated on day 46): 122 % of control | T/C (dose: 180.0 mg/kg/injection, schedule: Q04DX003 (ip), vehicle: Klucel (hydroxypropylcellulose) (HPC), evaluated on day 60): 147 % of control | T/C (dose: 200.0 mg/kg/injection, schedule: Q01DX001 (ip), vehicle: Klucel (hydroxypropylcellulose) (HPC), evaluated on day 5): 128 (2×), 132, 141 (2×), 146 % of control | T/C (dose: 200.0 mg/kg/injection, schedule: Q01DX001 (ip), vehicle: Klucel (hydroxypropylcellulose) (HPC), evaluated on day 30): 127 (2×) and 150 % of control | T/C (dose: 200.0 mg/kg/injection, schedule: Q01DX001 (ip), vehicle: Klucel (hydroxypropylcellulose) (HPC), evaluated on day 60): 144 % of control | T/C (dose: 200.0 mg/kg/injection, schedule: Q01DX001 (ip), vehicle: Klucel (hydroxypropylcellulose) (HPC), evaluated on day 75): 144 % of control | T/C (dose: 200.0 mg/kg/injection, schedule: Q01DX001 (ip), vehicle: other): 133 % of control | T/C (dose: 200.0 mg/kg/injection, schedule: Q01DX001 (ip), vehicle: steroid suspending solution): 133 % of control | T/C (dose: 200.0 mg/kg/injection, schedule: Q04DX003 (ip), vehicle: Klucel (hydroxypropylcellulose) (HPC), evaluated on day 5): 117, 125, 141, 159, 164, 181, 184, 206, 207, 220, 221 % of control | T/C (dose: 200.0 mg/kg/injection, schedule: Q04DX003 (ip), vehicle: Klucel (hydroxypropylcellulose) (HPC), evaluated on day 7): 117 and 171 % of control | T/C (dose: 200.0 mg/kg/injection, schedule: Q04DX003 (ip), vehicle: Klucel (hydroxypropylcellulose) (HPC), evaluated on day 30): 117 and 159 % of control | T/C (dose: 200.0 mg/kg/injection, schedule: Q04DX003 (ip), vehicle: Klucel (hydroxypropylcellulose) (HPC), evaluated on day 32): 170 % of control | T/C (dose: 200.0 mg/kg/injection, schedule: Q04DX003 (ip), vehicle: Klucel (hydroxypropylcellulose) (HPC), evaluated on day 46): 130 % of control | T/C (dose: 200.0 mg/kg/injection, schedule: Q04DX003 (ip), vehicle: Klucel (hydroxypropylcellulose) (HPC), evaluated on day 50): 220 % of control | T/C (dose: 200.0 mg/kg/injection, schedule: Q04DX003 (ip), vehicle: Klucel (hydroxypropylcellulose) (HPC), evaluated on day 54): 144 % of control | T/C (dose: 200.0 mg/kg/injection, schedule: Q04DX003 (ip), vehicle: Klucel (hydroxypropylcellulose) (HPC), evaluated on day 60): 116, 160, 181, 205, 211 % of control | T/C (dose: 200.0 mg/kg/injection, schedule: Q04DX003 (ip), vehicle: Klucel (hydroxypropylcellulose) (HPC), evaluated on day 75): 227 % of control | T/C (dose: 205.0 mg/kg/injection, schedule: Q04DX003 (ip), vehicle: Klucel (hydroxypropylcellulose) (HPC), evaluated on day 5): 156 % of control | T/C (dose: 205.0 mg/kg/injection, schedule: Q04DX003 (ip), vehicle: Klucel (hydroxypropylcellulose) (HPC), evaluated on day 7): 139 % of control
